Test results published in paper PMC10238091.
No constants are given. Whether binding was seen depends on the method and setting. In cells and extracts the contact can be indirect. Here binding means that the protein was enriched with, or labelled near, the bait; the list need not be complete. Sequences can lack the tags named with a protein. Values belong to the molecule of their own block, whether it stands above or below them.

Sequences of proteins named here, by UniProt entry; tags and fusion partners are left off.
UniProt Q7Z739: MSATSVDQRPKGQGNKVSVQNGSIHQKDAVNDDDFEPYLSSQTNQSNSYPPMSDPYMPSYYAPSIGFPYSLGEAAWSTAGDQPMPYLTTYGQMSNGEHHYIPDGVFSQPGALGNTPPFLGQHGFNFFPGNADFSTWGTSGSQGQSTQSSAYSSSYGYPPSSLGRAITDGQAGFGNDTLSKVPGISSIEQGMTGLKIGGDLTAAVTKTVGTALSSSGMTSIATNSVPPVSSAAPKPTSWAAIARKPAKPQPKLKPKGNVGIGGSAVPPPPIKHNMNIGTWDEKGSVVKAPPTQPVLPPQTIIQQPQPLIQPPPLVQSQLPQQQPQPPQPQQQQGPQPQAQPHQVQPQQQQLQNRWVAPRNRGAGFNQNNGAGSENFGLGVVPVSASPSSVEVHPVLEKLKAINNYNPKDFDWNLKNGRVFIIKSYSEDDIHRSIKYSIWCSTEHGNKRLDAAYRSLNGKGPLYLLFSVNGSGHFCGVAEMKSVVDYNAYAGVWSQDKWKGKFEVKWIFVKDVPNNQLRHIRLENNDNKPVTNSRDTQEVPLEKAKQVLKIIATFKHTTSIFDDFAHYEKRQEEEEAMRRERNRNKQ

How the values were obtained:
[1] = target: T1, YFP-SA2^e32+ (YFP-tagged SA2 containing exon 32) (human) (UniProt Q8N3U4); assay: affinity purification with mass spectrometry; GFP-Trap IP of YFP-SA2 isoforms from whole cell lysates of transfected HCT116 OsTIR cells, prepared as for CLIP, washes in high salt buffer (1 M NaCl, 1 M urea); LC-MS/MS, three biological replicates; GFP-Trap of untransfected cells as mock
T1 sequence: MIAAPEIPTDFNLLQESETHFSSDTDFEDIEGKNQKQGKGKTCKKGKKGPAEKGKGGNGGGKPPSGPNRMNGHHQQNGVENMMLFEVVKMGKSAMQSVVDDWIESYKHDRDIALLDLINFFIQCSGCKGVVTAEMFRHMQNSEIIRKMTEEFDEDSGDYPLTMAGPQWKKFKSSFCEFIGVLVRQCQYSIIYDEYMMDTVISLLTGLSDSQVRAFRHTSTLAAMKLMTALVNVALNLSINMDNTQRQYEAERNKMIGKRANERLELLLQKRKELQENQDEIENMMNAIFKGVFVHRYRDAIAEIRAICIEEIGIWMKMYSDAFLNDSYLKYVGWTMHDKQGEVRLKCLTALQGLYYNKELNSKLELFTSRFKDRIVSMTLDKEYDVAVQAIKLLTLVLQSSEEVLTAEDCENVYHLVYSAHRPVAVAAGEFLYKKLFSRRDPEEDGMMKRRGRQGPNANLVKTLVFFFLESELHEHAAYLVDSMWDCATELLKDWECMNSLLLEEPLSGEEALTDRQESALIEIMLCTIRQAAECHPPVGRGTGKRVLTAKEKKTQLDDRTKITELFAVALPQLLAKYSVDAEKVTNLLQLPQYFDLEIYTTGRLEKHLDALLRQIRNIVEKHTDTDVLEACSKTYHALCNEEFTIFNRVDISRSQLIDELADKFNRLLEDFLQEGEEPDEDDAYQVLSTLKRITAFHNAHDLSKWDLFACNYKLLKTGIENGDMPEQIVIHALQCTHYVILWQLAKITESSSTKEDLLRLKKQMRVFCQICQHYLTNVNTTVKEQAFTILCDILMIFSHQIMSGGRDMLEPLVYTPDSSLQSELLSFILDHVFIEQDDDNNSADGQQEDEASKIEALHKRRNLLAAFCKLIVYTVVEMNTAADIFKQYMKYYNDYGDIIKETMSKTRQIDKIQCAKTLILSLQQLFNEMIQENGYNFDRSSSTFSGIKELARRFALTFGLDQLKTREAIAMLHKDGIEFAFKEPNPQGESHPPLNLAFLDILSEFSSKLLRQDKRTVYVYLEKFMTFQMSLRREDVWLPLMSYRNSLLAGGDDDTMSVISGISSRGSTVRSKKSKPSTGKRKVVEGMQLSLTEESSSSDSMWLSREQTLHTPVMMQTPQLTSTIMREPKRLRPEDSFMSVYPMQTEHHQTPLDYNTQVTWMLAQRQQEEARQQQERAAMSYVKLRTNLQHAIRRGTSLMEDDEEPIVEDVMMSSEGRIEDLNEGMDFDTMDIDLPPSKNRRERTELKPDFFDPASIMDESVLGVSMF

[2] = target: T2, SA1 (Stromalin Antigen 1, STAG1) (human (endogenous in HCT116 and HeLa)) (UniProt Q8WVM7); assay: affinity purification with mass spectrometry; endogenous SA1 IP (15 μg antibody, 2 mg chromatin extract) from RAD21mAC cells untreated or IAA 4 h, with IgG and siSA1 controls; LC-MS/MS, three biological replicates
T2 sequence: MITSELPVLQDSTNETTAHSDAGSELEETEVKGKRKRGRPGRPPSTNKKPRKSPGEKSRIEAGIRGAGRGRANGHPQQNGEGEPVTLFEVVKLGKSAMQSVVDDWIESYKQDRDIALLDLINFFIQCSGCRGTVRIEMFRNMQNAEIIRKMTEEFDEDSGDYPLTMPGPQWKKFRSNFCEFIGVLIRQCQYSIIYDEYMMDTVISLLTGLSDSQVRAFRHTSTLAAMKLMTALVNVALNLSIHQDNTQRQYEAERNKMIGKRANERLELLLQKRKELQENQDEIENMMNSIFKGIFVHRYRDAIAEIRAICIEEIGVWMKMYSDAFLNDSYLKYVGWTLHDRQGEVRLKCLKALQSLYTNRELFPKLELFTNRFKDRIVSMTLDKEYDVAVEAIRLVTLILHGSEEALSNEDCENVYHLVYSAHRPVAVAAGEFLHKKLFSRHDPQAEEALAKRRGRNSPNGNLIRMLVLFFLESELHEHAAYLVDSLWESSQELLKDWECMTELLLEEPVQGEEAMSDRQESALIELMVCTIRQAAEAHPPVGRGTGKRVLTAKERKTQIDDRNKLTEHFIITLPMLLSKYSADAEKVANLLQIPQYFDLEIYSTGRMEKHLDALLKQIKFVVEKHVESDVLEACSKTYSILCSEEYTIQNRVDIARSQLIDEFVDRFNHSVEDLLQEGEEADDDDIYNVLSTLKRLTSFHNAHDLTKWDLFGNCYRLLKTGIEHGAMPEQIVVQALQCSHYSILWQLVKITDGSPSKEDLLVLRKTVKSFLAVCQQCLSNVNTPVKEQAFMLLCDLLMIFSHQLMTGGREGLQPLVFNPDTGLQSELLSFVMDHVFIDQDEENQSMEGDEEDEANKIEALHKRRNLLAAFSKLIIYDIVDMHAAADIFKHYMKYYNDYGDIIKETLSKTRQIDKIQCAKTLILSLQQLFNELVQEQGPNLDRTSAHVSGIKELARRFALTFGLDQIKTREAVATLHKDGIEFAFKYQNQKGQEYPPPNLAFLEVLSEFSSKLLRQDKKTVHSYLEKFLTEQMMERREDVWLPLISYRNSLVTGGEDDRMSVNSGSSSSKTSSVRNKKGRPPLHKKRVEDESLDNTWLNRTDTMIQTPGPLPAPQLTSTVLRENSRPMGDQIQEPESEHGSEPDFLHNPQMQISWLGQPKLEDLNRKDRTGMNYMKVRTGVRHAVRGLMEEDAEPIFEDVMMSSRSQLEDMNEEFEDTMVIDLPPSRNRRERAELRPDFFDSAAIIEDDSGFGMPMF

binding [1]: binds | binding [2]: binds
Molecule: YTHDF3 (from UniProt Q7Z739 1-585)

binding [1]: binds
B1: DIS3 (protein, UniProt Q9Y2L1 1-958)
chain: MLKSKTFLKKTRAGGVMKIVREHYLRDDIGCGAPGCAACGGAHEGPALEPQPQDPASSVCPQPHYLLPDTNVLLHQIDVLEDPAIRNVIVLQTVLQEVRNRSAPVYKRIRDVTNNQEKHFYTFTNEHHRETYVEQEQGENANDRNDRAIRVAAKWYNEHLKKMSADNQLQVIFITNDRRNKEKAIEEGIPAFTCEEYVKSLTANPELIDRLACLSEEGNEIESGKIIFSEHLPLSKLQQGIKSGTYLQGTFRASRENYLEATVWIHGDNEENKEIILQGLKHLNRAVHEDIVAVELLPKSQWVAPSSVVLHDEGQNEEDVEKEEETERMLKTAVSEKMLKPTGRVVGIIKRNWRPYCGMLSKSDIKESRRHLFTPADKRIPRIRIETRQASTLEGRRIIVAIDGWPRNSRYPNGHFVRNLGDVGEKETETEVLLLEHDVPHQPFSQAVLSFLPKMPWSITEKDMKNREDLRHLCICSVDPPGCTDIDDALHCRELENGNLEVGVHIADVSHFIRPGNALDQESARRGTTVYLCEKRIDMVPELLSSNLCSLKCDVDRLAFSCIWEMNHNAEILKTKFTKSVINSKASLTYAEAQLRIDSANMNDDITTSLRGLNKLAKILKKRRIEKGALTLSSPEVRFHMDSETHDPIDLQTKELRETNSMVEEFMLLANISVAKKIHEEFSEHALLRKHPAPPPSNYEILVKAARSRNLEIKTDTAKSLAESLDQAESPTFPYLNTLLRILATRCMMQAVYFCSGMDNDFHHYGLASPIYTHFTSPIRRYADVIVHRLLAVAIGADCTYPELTDKHKLADICKNLNFRHKMAQYAQRASVAFHTQLFFKSKGIVSEEAYILFVRKNAIVVLIPKYGLEGTVFFEEKDKPNPQLIYDDEIPSLKIEDTVFHVFDKVKVKIMLDSSNLQHQKIRMSLVEPQIPGISIPTDTSNMDLNGPKKKKMKLGK
